# The list shows a part of the results.
# B1: PX14343G-pdi-535-24-535 (Parabacteroides distasonis) (protein)
# chain: LDTVPKDQLAPSTTWQTEADAKGFIVGCYKDLLDGNTLLYLDCGSDIGYNNFPWEGFRPWGDGSLSSSNPGQILYDYKSIRKANTFLENVDKVTFSSDAVKANYVAQAKAIRAYKYFLMNWWYGGVPIISSYSSADEAKVERNTEQEVRDYIAKDLDEALAGIAEAPEARGYIAKGAVLAIKMREALYYGDWQKAKDAAKAIIDLKQYELDPDYTNLFKVSGVDSKEIILADQNIETLDGLGTIGQMYNNVDQGWSSIVPTQNLVDMYEMSDGLTKEESKTYDAKHPFANRDPRMAMTILYPGRDWRGDVLNTLDEKLQDGTVNKNFPTYTDNASKSALTWAKYLDPMDQYGDVWSSGACPIVFRYAEVLLTYAEAANELSGPSDEIYGYLNQIRQRVGMGEVDKAKYGTKDKLRELIRRERTVELAGEGLRRADIVRWQEDGKMLAEKVMNGDLLRVTGTINYGESEPTKRAEITGTAVIETRQFSSRNRYLPIPQTSMDKNPNLKQNPGY
# Assays:
# Test in all cases: glycan array binding signal (z-score within array); higher = stronger binding
# Conditions in all cases: glycan notation: IUPAC condensed, linker removed
# [1] = target: Gal(b1-4)GlcNAc(b1-3)Gal(b1-4)GlcNAc(b1-2)[Gal(b1-4)GlcNAc(b1-3)Gal(b1-4)GlcNAc(b1-6)]Man(a1-6)[Gal(b1-4)GlcNAc(b1-3)Gal(b1-4)GlcNAc(b1-2)Man(a1-3)]Man(b1-4)GlcNAc(b1-4)GlcNAc
# In short: (§1)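 From the Consortium for Functional Glycomics database, 3228 arrays were curated, keeping only those whose protein sequence was available. Binding is given as a within-array Z-score averaged across arrays sharing a protein sequence and across linkers. Negative Z-scores can be read as non-binding.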
# [2] = target: Gal(b1-4)GlcNAc(b1-3)Gal(b1-4)GlcNAc(b1-2)[Gal(b1-4)GlcNAc(b1-3)Gal(b1-4)GlcNAc(b1-6)]Man(a1-6)[Gal(b1-4)GlcNAc(b1-3)Gal(b1-4)GlcNAc(b1-2)Man(a1-3)]Man(b1-4)GlcNAc(b1-4)[Fuc(a1-6)]GlcNAc
# In short: as §1
# [3] = target: Gal(b1-4)GlcNAc(b1-3)Gal(b1-4)GlcNAc(b1-3)Gal(b1-4)GlcNAc
# In short: as §1
# [4] = target: Gal(b1-4)GlcNAc(b1-3)Gal(b1-4)GlcNAc(b1-3)Gal(b1-4)GlcNAc(b1-2)Man(a1-3)[Gal(b1-4)GlcNAc(b1-3)Gal(b1-4)GlcNAc(b1-3)Gal(b1-4)GlcNAc(b1-2)Man(a1-6)]Man(b1-4)GlcNAc(b1-4)GlcNAc
# In short: as §1
# [5] = target: Gal(b1-4)GlcNAc(b1-3)Gal(b1-4)GlcNAc(b1-3)Gal(b1-4)GlcNAc(b1-2)Man(a1-3)[Gal(b1-4)GlcNAc(b1-3)Gal(b1-4)GlcNAc(b1-3)Gal(b1-4)GlcNAc(b1-2)Man(a1-6)]Man(b1-4)GlcNAc(b1-4)[Fuc(a1-6)]GlcNAc
# In short: as §1
# [6] = target: Gal(b1-4)GlcNAc(b1-3)Gal(b1-4)GlcNAc(b1-3)Gal(b1-4)GlcNAc(b1-2)[Gal(b1-4)GlcNAc(b1-3)Gal(b1-4)GlcNAc(b1-3)Gal(b1-4)GlcNAc(b1-6)]Man(a1-6)[Gal(b1-4)GlcNAc(b1-3)Gal(b1-4)GlcNAc(b1-3)Gal(b1-4)GlcNAc(b1-2)Man(a1-3)]Man(b1-4)GlcNAc(b1-4)[Fuc(a1-6)]GlcNAc
# In short: as §1
# [7] = target: Gal(b1-4)GlcNAc(b1-3)Gal(b1-4)GlcNAc(b1-3)Gal(b1-4)GlcNAc(b1-3)Gal(b1-4)GlcNAc(b1-2)Man(a1-3)[Gal(b1-4)GlcNAc(b1-3)Gal(b1-4)GlcNAc(b1-3)Gal(b1-4)GlcNAc(b1-3)Gal(b1-4)GlcNAc(b1-2)Man(a1-6)]Man(b1-4)GlcNAc(b1-4)GlcNAc
# In short: as §1
# [8] = target: Gal(b1-4)GlcNAc(b1-3)Gal(b1-4)GlcNAc(b1-3)Gal(b1-4)GlcNAc(b1-3)Gal(b1-4)GlcNAc(b1-2)Man(a1-3)[Gal(b1-4)GlcNAc(b1-3)Gal(b1-4)GlcNAc(b1-3)Gal(b1-4)GlcNAc(b1-3)Gal(b1-4)GlcNAc(b1-2)Man(a1-6)]Man(b1-4)GlcNAc(b1-4)[Fuc(a1-6)]GlcNAc
# In short: as §1
# [9] = target: Gal(b1-4)GlcNAc(b1-3)Gal(b1-4)GlcNAc(b1-3)Gal(b1-4)GlcNAc(b1-3)Gal(b1-4)GlcNAc(b1-2)[Gal(b1-4)GlcNAc(b1-3)Gal(b1-4)GlcNAc(b1-3)Gal(b1-4)GlcNAc(b1-3)Gal(b1-4)GlcNAc(b1-6)]Man(a1-6)[Gal(b1-4)GlcNAc(b1-3)Gal(b1-4)GlcNAc(b1-3)Gal(b1-4)GlcNAc(b1-3)Gal(b1-4)GlcNAc(b1-2)Man(a1-3)]Man(b1-4)GlcNAc(b1-4)[Fuc(a1-6)]GlcNAc
# In short: as §1
# [10] = target: Gal(b1-4)GlcNAc(b1-3)Gal(b1-4)GlcNAc(b1-3)Gal(b1-4)GlcNAc(b1-3)Gal(b1-4)GlcNAc(b1-3)Gal(b1-4)GlcNAc(b1-2)Man(a1-3)[Gal(b1-4)GlcNAc(b1-3)Gal(b1-4)GlcNAc(b1-3)Gal(b1-4)GlcNAc(b1-3)Gal(b1-4)GlcNAc(b1-3)Gal(b1-4)GlcNAc(b1-2)Man(a1-6)]Man(b1-4)GlcNAc(b1-4)GlcNAc
# In short: as §1
# [11] = target: Gal(b1-4)GlcNAc(b1-3)Gal(b1-4)GlcNAc(b1-3)Gal(b1-4)GlcNAc(b1-3)Gal(b1-4)GlcNAc(b1-3)Gal(b1-4)GlcNAc(b1-2)Man(a1-3)[Gal(b1-4)GlcNAc(b1-3)Gal(b1-4)GlcNAc(b1-3)Gal(b1-4)GlcNAc(b1-3)Gal(b1-4)GlcNAc(b1-3)Gal(b1-4)GlcNAc(b1-2)Man(a1-6)]Man(b1-4)GlcNAc(b1-4)[Fuc(a1-6)]GlcNAc
# In short: as §1
# [12] = target: Gal(b1-4)GlcNAc(b1-3)Gal(b1-4)GlcNAc(b1-3)Gal(b1-4)GlcNAc(b1-3)Gal(b1-4)GlcNAc(b1-3)Gal(b1-4)GlcNAc(b1-2)[Gal(b1-4)GlcNAc(b1-3)Gal(b1-4)GlcNAc(b1-3)Gal(b1-4)GlcNAc(b1-3)Gal(b1-4)GlcNAc(b1-3)Gal(b1-4)GlcNAc(b1-6)]Man(a1-6)[Gal(b1-4)GlcNAc(b1-3)Gal(b1-4)GlcNAc(b1-3)Gal(b1-4)GlcNAc(b1-3)Gal(b1-4)GlcNAc(b1-3)Gal(b1-4)GlcNAc(b1-2)Man(a1-3)]Man(b1-4)GlcNAc(b1-4)[Fuc(a1-6)]GlcNAc
# In short: as §1
# [13] = target: Gal(b1-4)GlcNAc(b1-3)Gal(b1-4)GlcNAc(b1-3)Gal(b1-4)GlcNAc(b1-3)Gal(b1-4)GlcNAc(b1-3)Gal(b1-4)GlcNAc(b1-3)Gal(b1-4)GlcNAc(b1-2)Man(a1-3)[Gal(b1-4)GlcNAc(b1-3)Gal(b1-4)GlcNAc(b1-3)Gal(b1-4)GlcNAc(b1-3)Gal(b1-4)GlcNAc(b1-3)Gal(b1-4)GlcNAc(b1-3)Gal(b1-4)GlcNAc(b1-2)Man(a1-6)]Man(b1-4)GlcNAc(b1-4)GlcNAc
# In short: as §1
# [14] = target: Gal(b1-4)GlcNAc(b1-3)Gal(b1-4)GlcNAc(b1-3)GalNAc
# In short: as §1
# [15] = target: Gal(b1-4)GlcNAc(b1-3)Gal(b1-4)GlcNAc(b1-3)[Gal(b1-4)GlcNAc(b1-3)Gal(b1-4)GlcNAc(b1-6)]GalNAc
# In short: as §1
# [16] = target: Gal(b1-4)GlcNAc(b1-3)Gal(b1-4)GlcNAc(b1-6)[Gal(b1-3)]GalNAc
# In short: as §1
# [17] = target: Gal(b1-4)GlcNAc(b1-3)Gal(b1-4)[Fuc(a1-3)]GlcNAc(b1-3)Gal(b1-4)[Fuc(a1-3)]GlcNAc
# In short: as §1
# [18] = target: Gal(b1-4)GlcNAc(b1-3)GalNAc
# In short: as §1
# [19] = target: Gal(b1-4)GlcNAc(b1-3)[Fuc(a1-3)GlcNAc(b1-6)]Gal(b1-4)Glc
# In short: as §1
# [20] = target: Gal(b1-4)GlcNAc(b1-3)[Gal(b1-4)GlcNAc(b1-6)]Gal(b1-4)GlcNAc
# In short: as §1
# [21] = target: Gal(b1-4)GlcNAc(b1-3)[GlcNAc(b1-6)]Gal(b1-4)GlcNAc
# In short: as §1
# [22] = target: Gal(b1-4)GlcNAc(b1-6)Gal(b1-4)GlcNAc
# In short: as §1
# [23] = target: Gal(b1-4)GlcNAc(b1-6)GalNAc
# In short: as §1
# [24] = target: Gal(b1-4)GlcNAc(b1-6)[Gal(b1-3)]GalNAc
# In short: as §1
# [25] = target: Gal(b1-4)GlcNAc(b1-6)[Gal(b1-4)GlcNAc(b1-3)]GalNAc
# In short: as §1
# Gal(b1-4)GlcNAc6P = target: Gal(b1-4)GlcNAc6P
# In short: as §1
# Gal(b1-6)Gal = target: Gal(b1-6)Gal
# In short: as §1
# Gal3S(b1-3)GalNAc = target: Gal3S(b1-3)GalNAc
# In short: as §1
# Gal3S(b1-3)GlcNAc = target: Gal3S(b1-3)GlcNAc
# In short: as §1
# [26] = target: Gal3S(b1-3)[Fuc(a1-4)]GlcNAc
# In short: as §1
# Gal3S(b1-4)Glc = target: Gal3S(b1-4)Glc
# In short: as §1
# Gal3S(b1-4)Glc6S = target: Gal3S(b1-4)Glc6S
# In short: as §1
# Gal3S(b1-4)GlcNAc = target: Gal3S(b1-4)GlcNAc
# In short: as §1
# [27] = target: Gal3S(b1-4)[Fuc(a1-3)]Glc6S
# In short: as §1
# [28] = target: Gal3S(b1-4)[Fuc(a1-3)]GlcNAc
# In short: as §1
# [29] = target: Gal3S(b1-4)[Fuc(a1-3)]GlcNAc6S
# In short: as §1
# Gal3S4S(b1-4)GlcNAc = target: Gal3S4S(b1-4)GlcNAc
# In short: as §1
binder,measurement,setting,value
B1,glycan array binding signal (z-score),[1],0.76
same,glycan array binding signal (z-score),[2],1.34
same,glycan array binding signal (z-score),[3],-0.427
same,glycan array binding signal (z-score),[4],1.65
same,glycan array binding signal (z-score),[5],1.91
same,glycan array binding signal (z-score),[6],3.07
same,glycan array binding signal (z-score),[7],0.004
same,glycan array binding signal (z-score),[8],0.732
same,glycan array binding signal (z-score),[9],0.418
same,glycan array binding signal (z-score),[10],2.76
same,glycan array binding signal (z-score),[11],1.56
same,glycan array binding signal (z-score),[12],0.853
same,glycan array binding signal (z-score),[13],0.518
same,glycan array binding signal (z-score),[14],0.065
same,glycan array binding signal (z-score),[15],1.26
same,glycan array binding signal (z-score),[16],0.647
same,glycan array binding signal (z-score),[17],0.98
same,glycan array binding signal (z-score),[18],-0.108
same,glycan array binding signal (z-score),[19],0.704
same,glycan array binding signal (z-score),[20],0.781
same,glycan array binding signal (z-score),[21],-0.369
same,glycan array binding signal (z-score),[22],-0.057
same,glycan array binding signal (z-score),[23],-0.574
same,glycan array binding signal (z-score),[24],-0.156
same,glycan array binding signal (z-score),[25],-0.232
same,glycan array binding signal (z-score),Gal(b1-4)GlcNAc6P,-0.16
same,glycan array binding signal (z-score),Gal(b1-6)Gal,-0.581
same,glycan array binding signal (z-score),Gal3S(b1-3)GalNAc,-0.532
same,glycan array binding signal (z-score),Gal3S(b1-3)GlcNAc,-0.32
same,glycan array binding signal (z-score),[26],-0.198
same,glycan array binding signal (z-score),Gal3S(b1-4)Glc,0.612
same,glycan array binding signal (z-score),Gal3S(b1-4)Glc6S,0.802
same,glycan array binding signal (z-score),Gal3S(b1-4)GlcNAc,0.428
same,glycan array binding signal (z-score),[27],0.549
same,glycan array binding signal (z-score),[28],0.621
same,glycan array binding signal (z-score),[29],2.01
same,glycan array binding signal (z-score),Gal3S4S(b1-4)GlcNAc,-0.26

# Reprinted from the results shown for reference:
binder,measurement,setting,value
B1,glycan array binding signal (z-score),[22],-0.057
same,glycan array binding signal (z-score),[23],-0.574

# Reference: the supplement of paper PMC8728848
